Results on nine substances are retold here after article PMC5652782.

By UniProt entry, the sequences of proteins in these tests, tags left out. Where a name states a change or a piece, a line headed by the entry shows the natural chain unless it says otherwise. Chains listed by the source or under a name are the forms on record and can include a tag or linker.
UniProt P63074: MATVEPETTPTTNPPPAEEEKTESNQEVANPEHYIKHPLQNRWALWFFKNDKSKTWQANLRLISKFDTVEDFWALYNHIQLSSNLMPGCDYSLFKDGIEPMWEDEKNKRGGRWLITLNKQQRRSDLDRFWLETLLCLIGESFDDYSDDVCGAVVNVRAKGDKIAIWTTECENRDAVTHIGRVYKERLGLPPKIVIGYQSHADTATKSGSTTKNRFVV
UniProt P30281: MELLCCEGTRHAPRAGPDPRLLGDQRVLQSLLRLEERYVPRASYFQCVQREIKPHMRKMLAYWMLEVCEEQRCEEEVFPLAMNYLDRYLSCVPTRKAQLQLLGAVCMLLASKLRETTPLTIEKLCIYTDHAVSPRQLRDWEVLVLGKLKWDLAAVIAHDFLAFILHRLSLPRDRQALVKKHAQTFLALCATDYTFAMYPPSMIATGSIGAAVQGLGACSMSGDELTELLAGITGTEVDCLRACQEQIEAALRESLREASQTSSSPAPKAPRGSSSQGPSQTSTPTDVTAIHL
UniProt P06730: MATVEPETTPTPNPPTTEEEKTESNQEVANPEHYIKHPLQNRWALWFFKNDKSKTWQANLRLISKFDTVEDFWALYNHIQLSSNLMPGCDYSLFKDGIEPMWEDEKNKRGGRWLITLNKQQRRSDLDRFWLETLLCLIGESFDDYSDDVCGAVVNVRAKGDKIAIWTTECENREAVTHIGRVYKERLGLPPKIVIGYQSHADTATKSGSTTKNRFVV
UniProt P04792: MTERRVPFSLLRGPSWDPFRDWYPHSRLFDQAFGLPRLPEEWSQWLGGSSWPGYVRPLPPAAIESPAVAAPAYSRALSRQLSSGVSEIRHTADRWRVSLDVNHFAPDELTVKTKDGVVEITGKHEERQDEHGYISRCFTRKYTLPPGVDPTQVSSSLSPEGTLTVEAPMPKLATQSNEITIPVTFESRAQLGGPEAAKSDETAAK
Hsp27 3D phosphorylation mutant (constitutively phosphorylated mimic) (P04792, form named): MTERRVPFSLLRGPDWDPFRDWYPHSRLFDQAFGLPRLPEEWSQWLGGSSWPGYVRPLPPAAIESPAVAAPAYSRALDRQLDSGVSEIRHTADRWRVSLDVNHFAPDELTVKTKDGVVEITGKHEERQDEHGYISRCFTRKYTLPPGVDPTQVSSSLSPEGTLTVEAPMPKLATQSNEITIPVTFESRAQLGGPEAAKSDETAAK
Hsp27 3A phosphorylation mutant (constitutively unphosphorylated) (P04792, form named): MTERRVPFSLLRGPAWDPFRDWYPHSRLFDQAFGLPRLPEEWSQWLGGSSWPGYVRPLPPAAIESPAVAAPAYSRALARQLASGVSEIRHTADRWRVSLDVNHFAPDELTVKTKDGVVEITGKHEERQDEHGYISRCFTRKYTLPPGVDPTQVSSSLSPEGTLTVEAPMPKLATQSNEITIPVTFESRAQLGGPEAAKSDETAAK
UniProt Q00534: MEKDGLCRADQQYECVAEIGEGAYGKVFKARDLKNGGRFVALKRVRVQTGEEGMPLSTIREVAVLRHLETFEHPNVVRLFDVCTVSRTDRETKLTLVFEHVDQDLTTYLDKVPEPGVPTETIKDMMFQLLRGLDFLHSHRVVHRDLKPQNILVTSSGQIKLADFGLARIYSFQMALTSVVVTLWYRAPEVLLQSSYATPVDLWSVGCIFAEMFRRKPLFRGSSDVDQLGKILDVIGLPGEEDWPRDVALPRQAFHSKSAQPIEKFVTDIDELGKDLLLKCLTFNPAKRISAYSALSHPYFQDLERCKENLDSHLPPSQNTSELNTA

No constants are given. Whether binding was seen depends on the method and setting. In cells and extracts the contact can be indirect. Some results given as binding are weak or reduced against the parent protein; the word gives no strength.

For assay [1], the target named is eIF4E (endogenous, REG cells) (rat (endogenous in REG)) (UniProt P63074). The assay can be described thus: co-IP; REG cells transiently transfected with Hsp27 plasmids; cleared lysates precipitated with rabbit anti-eIF4E antibody overnight at 4°C, TrueBlot anti-rabbit beads; blot for histidine and eIF4E.
In another assay the target is CCND3/Luc (UniProt P30281). The assay is described as follows: FRET or BRET; extracts of HEK293T cells transfected separately with donor or acceptor; 1 μg (4 μg for CCND3/luc) donor lysate and 0 to 15 μg acceptor lysate, pre-incubated 2 h with DMSO or compound 14 (0, 20, 50, 100 μM), mixed for 30 min; coelenterazine.
Assay [2] addresses N-ter luc/eIF4E fusion protein (BRET donor) (UniProt P06730). The assay is described as follows: FRET or BRET; living HEK293T cells co-transfected with 0.2 μg donor plasmid N-ter luc/eIF4E and 0 to 1 μg acceptor plasmid Hsp27/YFP C-ter; coelenterazine.
Assay [3] has the same target. The assay is described as follows: FRET or BRET; extracts of HEK293T cells transfected separately with donor or acceptor; 1 μg (4 μg for CCND3/luc) donor lysate and 0 to 15 μg acceptor lysate, pre-incubated 2 h with DMSO or compound 14 (0, 20, 50, 100 μM), mixed for 30 min; coelenterazine.
Assay [4] concerns the target eIF4E (endogenous, PC-3 cells) (human (endogenous in PC-3)) (UniProt P06730). The assay is described as follows: co-IP; endogenous proteins of PC-3 cells treated with DMSO (control) for 48h; precipitated with eIF4E rabbit antibody or rabbit IgG (control); blot for Hsp27 and eIF4E.
For assay [5] the target is unchanged. The assay can be described thus: condition: only cells treated with compound 14 during 48h; co-IP; endogenous proteins of PC-3 cells treated with compound 14 for 48h; precipitated with eIF4E rabbit antibody; blot for Hsp27 and eIF4E.

In the case of “Hsp27 N1 truncated mutant (residues 1-93) (from UniProt P04792 1-93) (domain or fragment)”, the binding entry in assay [1] is recorded as “no binding”. Same read-out and setting: the value for “Hsp27 wild type (WT) (from UniProt P04792 1-205)” was “binds”.

For CDK6/YFP (from UniProt Q00534 1-326), in the assay with CCND3/Luc, the binding result is “binds”. Consider “Hsp27 3D phosphorylation mutant (constitutively phosphorylated mimic) (from UniProt P04792 1-205)”, for which the binding result in assay [1] is recorded as “binds”. On the same count and under the same terms, the value for “Hsp27 N2 truncated mutant (residues 1-173) (from UniProt P04792 1-173) (domain or fragment)” was “no binding”. With “Hsp27/YFP C-ter fusion protein (BRET acceptor) (from UniProt P04792 1-205)”, the binding result in assay [2] and in assay [3] was “binds” each time. For the substance “Hsp27 3A phosphorylation mutant (constitutively unphosphorylated) (from UniProt P04792 1-205)”, the binding result in assay [1] is on record as “binds”.

For “Hsp27 C1 truncated mutant (residues 93-205) (from UniProt P04792 93-205) (domain or fragment)”, in assay [1], the binding result is “binds”. For the substance “Hsp27 (endogenous, PC-3 cells) (from UniProt P04792 1-205)”, the results for the binding entry in assay [4] and in assay [5] were “binds” and “no binding”, respectively.
